# Assay results from PubChem BioAssay AID2685 (National Center for Advancing Translational Sciences (NCATS), 2010).
# The other results are listed elsewhere or left out. These are further read-outs of the screen, such as a control signal, another cell line or another target. No call is given for them. Most of these compounds were active or inconclusive in the main read-out, so they are no random draw. Potencies come from curve fits of mixed quality, noted in brackets.
# Assay: qHTS Assay for Lipid Storage Modulators in Drosophila S3 Cells;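 on cell number change: cells counted by Cell Tracker Red CMTPX staining in the red channel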
# Settings: BODIPY lipid droplet fluorescence, 18-24 h; for cell number change: measured here: cell count max response, cells fed with added oleic acid
# Method in brief: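 Drosophila S3 cells got compounds at several concentrations plus oleic acid (400 uM solution). Laser-scanning cytometry with 488 nm excitation read lipid droplets at 500-530 nm and cells at 575-640 nm. Percent activity was relative to 20 uM Triacsin C.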
# [1] = measured here: cell number channel AC50, cells fed with added oleic acid
# [2] = measured here: lipid fluorescence (Fed channel) AC50, cells fed with added oleic acid
Compound,cell number change [%],AC50 [1],AC50 [2]
N#Cc1ccc(NC(=O)CN2C(=O)NC(Cc3ccccc3)C2=O)cc1 (stereo unspecified),-37.5,"36.6 µM [falling, partial curve, poor fit]","0.00517 µM [falling, full curve, poor fit]"
CCCCC1(Br)C(=O)N(c2ccccc2)N(c2ccccc2)C1=O,2.85,,
Cc1nn(-c2ncc(C(F)(F)F)cc2Cl)c(=O)n1-c1ccccc1Cl,91.3,"29.1 µM [rising, single point]",
Cc1[nH]c2ccccc2c1C(=O)C(=O)N1CCN(c2cccc(Cl)c2)CC1,-2.28,,"29.1 µM [rising, single point]"
S=c1[nH]nc(Nc2ccccc2)s1,49.2,,"29.1 µM [rising, single point]"
Cc1cc(Br)ccc1OCC(=O)N(Cc1nc(-c2ccccc2)no1)C(C)C,24.5,,"29.1 µM [rising, single point]"
CCOC(=O)c1c(NC(=O)COc2ncnc3sccc23)sc2c1CCC2,-19.5,,
CC(=O)Nc1c2c(nn1-c1ccc(F)cc1)CSC2,28.1,,"25.9 µM [rising, single point]"
Cc1cc(=O)[nH]c(SCC(=O)Nc2cc(S(=O)(=O)N(C)C)ccc2Cl)n1,-81.5,,
CCN(C(=O)CSc1nc2cc(C(F)(F)F)ccc2n1Cc1ccccc1)C1CCS(=O)(=O)C1 (stereo unspecified),-5.91,,"1.84 µM [falling, partial curve]"
Cc1nn(CCC(N)=O)c2nc(-c3cccs3)cc(C(F)(F)F)c12,-2.43,,"2.91 µM [rising, single point]"
Cc1ccc(-n2c(Cc3cccn3C)nnc2SCC(=O)N2CCN(c3ccccc3)CC2)cc1,1.1,,"0.13 µM [falling, full curve, poor fit]"
CCCC1=C(C(=O)OCC)C(/C=C/c2ccccc2)n2ncnc2N1 (stereo unspecified),-76.4,"29.1 µM [falling, single point]",
COc1cccc(CNC(=O)C2CCCN(S(=O)(=O)c3c(C)noc3/C=C/N(C)C)C2)c1 (stereo unspecified),-3.07,,"0.731 µM [rising, full curve]"
O=C(NCCN1C(=O)S/C(=C\c2ccc(F)cc2)C1=O)c1cccc(S(=O)(=O)N2CCOCC2)c1,,,"7.31 µM [falling, partial curve, poor fit]"
Cc1ccc(NC(=O)CSCC(=O)N2CCOCC2)cc1,27.1,,
CCn1c(SC)nnc1-c1nn(-c2ccccc2)ccc1=O,-30.2,"0.058 µM [falling, full curve, poor fit]",
O=C(NCC1(N2CCCCC2)CCCCC1)C1CC(=O)N(c2ccc3c(c2)OCCO3)C1 (stereo unspecified),-24.1,"4.11 µM [falling, full curve, poor fit]","0.82 µM [falling, full curve, poor fit]"
Cc1ccccc1NC(=O)CNC(=O)Cc1cccc2ccccc12,-9.01,,"29.1 µM [falling, single point]"

# At a glance, 17 of the compounds above.
Compound,cell number change [%],AC50 [1],AC50 [2]
Cc1nn(-c2ncc(C(F)(F)F)cc2Cl)c(=O)n1-c1ccccc1Cl,91.3,"29.1 µM [rising, single point]",
Cc1[nH]c2ccccc2c1C(=O)C(=O)N1CCN(c2cccc(Cl)c2)CC1,-2.28,,"29.1 µM [rising, single point]"
S=c1[nH]nc(Nc2ccccc2)s1,49.2,,"29.1 µM [rising, single point]"
Cc1cc(Br)ccc1OCC(=O)N(Cc1nc(-c2ccccc2)no1)C(C)C,24.5,,"29.1 µM [rising, single point]"
CCOC(=O)c1c(NC(=O)COc2ncnc3sccc23)sc2c1CCC2,-19.5,,
CC(=O)Nc1c2c(nn1-c1ccc(F)cc1)CSC2,28.1,,"25.9 µM [rising, single point]"
Cc1cc(=O)[nH]c(SCC(=O)Nc2cc(S(=O)(=O)N(C)C)ccc2Cl)n1,-81.5,,
CCN(C(=O)CSc1nc2cc(C(F)(F)F)ccc2n1Cc1ccccc1)C1CCS(=O)(=O)C1 (stereo unspecified),-5.91,,"1.84 µM [falling, partial curve]"
Cc1nn(CCC(N)=O)c2nc(-c3cccs3)cc(C(F)(F)F)c12,-2.43,,"2.91 µM [rising, single point]"
Cc1ccc(-n2c(Cc3cccn3C)nnc2SCC(=O)N2CCN(c3ccccc3)CC2)cc1,1.1,,"0.13 µM [falling, full curve, poor fit]"
CCCC1=C(C(=O)OCC)C(/C=C/c2ccccc2)n2ncnc2N1 (stereo unspecified),-76.4,"29.1 µM [falling, single point]",
COc1cccc(CNC(=O)C2CCCN(S(=O)(=O)c3c(C)noc3/C=C/N(C)C)C2)c1 (stereo unspecified),-3.07,,"0.731 µM [rising, full curve]"
O=C(NCCN1C(=O)S/C(=C\c2ccc(F)cc2)C1=O)c1cccc(S(=O)(=O)N2CCOCC2)c1,,,"7.31 µM [falling, partial curve, poor fit]"
Cc1ccc(NC(=O)CSCC(=O)N2CCOCC2)cc1,27.1,,
CCn1c(SC)nnc1-c1nn(-c2ccccc2)ccc1=O,-30.2,"0.058 µM [falling, full curve, poor fit]",
O=C(NCC1(N2CCCCC2)CCCCC1)C1CC(=O)N(c2ccc3c(c2)OCCO3)C1 (stereo unspecified),-24.1,"4.11 µM [falling, full curve, poor fit]","0.82 µM [falling, full curve, poor fit]"
Cc1ccccc1NC(=O)CNC(=O)Cc1cccc2ccccc12,-9.01,,"29.1 µM [falling, single point]"

# (next part)

Compound,cell number change [%],AC50 [1],AC50 [2]
O=C(Cc1ccc([N+](=O)[O-])cc1)N1CCN=C1SCc1ccccc1,9.58,,"0.82 µM [rising, single point]"
Clc1ccc(-c2nc3ccccc3nc2-c2ccccc2)cc1,1.93,,"2.59 µM [rising, partial curve]"
COc1ccc([C@H]2CC(=O)C=C(c3ccc(-c4ccccc4)cc3)C2)cc1OC,-14.1,,"7.31 µM [falling, partial curve]"
Cc1cc(C2(c3ccc(O)c(C)c3)C(=O)Nc3ccccc32)ccc1O,-61.1,"13 µM [falling, partial curve]","16.4 µM [falling, single point]"
Cc1cc2nc(C(C)(C)C)cc(N)n2n1,-1.29,"1.03 µM [falling, full curve]","0.82 µM [falling, full curve]"
O=C(CSc1nnc(NC(=O)c2ccco2)s1)NC1CCCC1,60.4,"18.4 µM [rising, partial curve]",
O=C(N1CCOCC1)N1CCN(S(=O)(=O)c2cccc([N+](=O)[O-])c2)CC1,-15.3,,"0.651 µM [falling, partial curve, poor fit]"
O=C(CCSc1ccccc1)N1CCCC1,33.2,"32.6 µM [rising, single point]","3.66 µM [falling, full curve, poor fit]"
O=C(COc1ccccc1)NC1CCSc2ccccc21 (stereo unspecified),76.5,"29.1 µM [rising, single point]",
CCOC(=O)c1c(N)sc2c1CCC(CC)C2 (stereo unspecified),0.483,,"0.13 µM [falling, full curve, poor fit]"
Cc1ccc(N(C(=O)c2csnn2)C(C(=O)NC2CCCCC2)c2ccco2)cc1 (stereo unspecified),3.85,,
Cc1cc(NC(=O)C(C)Sc2nc(-c3ccccc3)cc(=O)[nH]2)no1 (stereo unspecified),-7.69,,"8.2 µM [rising, partial curve]"
CCCCNC(=O)c1cc(S(=O)(=O)N2CCCCC2)oc1C,52.1,"29.1 µM [rising, single point]","29.1 µM [rising, single point]"
CN(CC(=O)Nc1ccc(Cl)c(C(F)(F)F)c1)C(=O)C1(c2ccccc2)CC1,20.8,"0.82 µM [rising, full curve, poor fit]","2.31 µM [rising, partial curve]"
CCN(CC)S(=O)(=O)c1ccc2nc(COC(=O)c3n[nH]c4ccccc34)[nH]c2c1,-8.8,,"6.51 µM [rising, single point]"
CCn1c(C)nc2cc(C(=O)N/N=C/c3ccccc3)ccc21,-8.45,"0.231 µM [rising, full curve]",
Cc1ccc(SCC(=O)Nc2ccc(N3CCOCC3)cc2)cc1,,,"20.6 µM [falling, single point]"
O=C(NC1CCCCC1)C(c1ccc(O)c(O)c1)N(C(=O)Cn1nnc2ccccc21)c1cccc(O)c1 (stereo unspecified),-9.51,,
COc1cccc(Cn2ncc3c4sc(Br)cc4n(C)c3c2=O)c1,48.9,"36.6 µM [rising, single point]","0.116 µM [rising, full curve, poor fit]"

# Reformatted with tabs: entries from further up.
Compound	cell number change [%]	AC50 [1]	AC50 [2]
Cc1cc(C2(c3ccc(O)c(C)c3)C(=O)Nc3ccccc32)ccc1O	-61.1	13 µM [falling, partial curve]	16.4 µM [falling, single point]
Cc1cc2nc(C(C)(C)C)cc(N)n2n1	-1.29	1.03 µM [falling, full curve]	0.82 µM [falling, full curve]

# (continued)

Compound,cell number change [%],AC50 [1],AC50 [2]
Cc1cc(C)cc(Oc2nc3ccccn3c(=O)c2/C=C(\C#N)C(=O)NC2CCS(=O)(=O)C2)c1 (stereo unspecified),3.1,,"0.092 µM [rising, full curve, poor fit]"
CN1CCCc2cc3c(C(F)(F)F)cc(=O)oc3nc21,,"6.51 µM [rising, single point]",
O=C(Nc1cccc(S(=O)(=O)N2CCOCC2)c1)C1CCCC1,-6.27,"0.00517 µM [rising, full curve, poor fit]","0.00461 µM [rising, full curve, poor fit]"
COc1ccc(N2CCN(S(=O)(=O)c3ccc(-c4cc(C)no4)s3)CC2)cc1,,,"29.1 µM [falling, single point]"
CCOc1ccc2[nH]c(C)c(CN3CCN(C)CC3)c(=O)c2c1,-22.9,"0.164 µM [falling, full curve, poor fit]",
FC(F)(F)c1cccc(-c2cc3ccccc3nc2N2CCCC2)c1,-54.1,"9.2 µM [falling, single point]","29.1 µM [falling, single point]"
Cn1c(=O)c(=O)n(C)c2cc(N3CCCCC3)c(NS(=O)(=O)c3ccc(Br)cc3)cc21,-25.1,"1.16 µM [falling, full curve]","6.51 µM [falling, partial curve]"
C/C=C/Cn1c(N2CCCCCC2)nc2c1c(=O)[nH]c(=O)n2C,18.2,"0.00461 µM [rising, full curve, poor fit]",
COc1ccc(NC(=O)COC(=O)COc2ccc(Br)cc2)cc1,-66.1,"0.116 µM [falling, full curve, poor fit]","0.116 µM [falling, full curve, poor fit]"
CCOc1ccccc1C(=O)Nc1cc(=O)n(C)c(=O)n1C,-16.5,,
CCOC(=O)c1c(CC(C)C)csc1/N=C/C1=C(O)CCCC1=O,-27.8,,"29.1 µM [falling, single point]"
Cc1cccc(NC(=O)CSc2nnc(NC(=O)c3ccc(S(=O)(=O)N4CCOCC4)cc3)s2)c1C,-2.12,,"29.1 µM [rising, single point]"
COc1cccc(N2CCN(C(=S)Nc3ccccc3OC)CC2)c1,26.3,,"0.13 µM [rising, full curve, poor fit]"
COc1ccccc1N1CCN(C(=O)C2CCN(C(=O)c3ccc(C(C)(C)C)cc3)CC2)CC1,3.66,"2.91 µM [rising, single point]",
Cc1cc(C)cc(NS(=O)(=O)c2ccc(NC(=S)NC(=O)c3ccc(Br)o3)cc2)c1,-16.5,"0.231 µM [rising, full curve, poor fit]",
COc1ccccc1OCC(=O)N(Cc1nc(-c2ccccc2)no1)C1CCCCC1,-0.539,,
Cc1cc(-c2nnc(SCC(=O)Nc3nc(-c4ccc(Cl)cc4)cs3)o2)no1,-29.9,,"20.6 µM [falling, single point]"
O=S(=O)(NCc1ccccc1)c1cccc2nonc12,-3.78,"6.51 µM [falling, single point]","0.146 µM [falling, full curve, poor fit]"
COc1cc(O)c(CC=C(C)C)c(O)c1C(=O)CCc1ccc(O)cc1,-67,"20.6 µM [falling, single point]","20.6 µM [falling, single point]"
